Laboratory results: PubChem BioAssay AID504774 (Drosophila RNAi Screening Center, 2011)

- Purpose: 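Genes required for cells to withstand methyl methanesulphonate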 (primary screen)
- Cell system: Drosophila Kc167 cells
- Reagents: long dsRNA against Drosophila genes, about 0.25 µg dsRNA per well
- Timing: about 6 days: 3 days knock-down, then 3 days with or without MMS
- Conditions: methyl methanesulphonate 0.004% (w/v) for 3 days after knock-down
- Measured: 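Viability in wells given MMS, read as ATP luminescence, normalised by quantiles plate by plate and averaged across replicates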
- Direction: mean viability with MMS: higher = more surviving cells after MMS
The screen tested about 23,000 reagents; this is a random part of those that have a named target and a result. 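Values are quantile-normalised luminescence on an arbitrary scale; higher means more cells surviving MMS.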 A plus sign joins genes that one reagent is predicted to hit. Not all columns of the deposit are shown.

| gene | dsRNA | mean viability with MMS |
| --- | --- | --- |
| Wbp2 | DRSC09821 | 3.15e6 |
| CG3306 | DRSC10357 | 3.50e6 |
| Gr28b | DRSC02291 | 3.44e6 |
| Gr28b | DRSC02292 | 3.42e6 |
| CG18666 | DRSC02694 | 3.71e6 |
| Ir21a | DRSC00528 | 3.44e6 |
| Jon65Aiii | DRSC10649 | 3.74e6 |
| CG33981 + fab1 | DRSC07412 | 3.58e6 |
| CG32625 | DRSC18994 | 3.63e6 |
| CG7791 | DRSC04891 | 3.41e6 |
| beat-Vb | DRSC12940 | 3.70e6 |
| beat-Vb | DRSC14844 | 1.82e6 |
| beat-Vb | DRSC14845 | 3.34e6 |
| NimC1 | DRSC01879 | 3.56e6 |
| CG34171 | DRSC01637 | 3.41e6 |
| CG9864 | DRSC07346 | 3.46e6 |
| CG5089 | DRSC06914 | 3.54e6 |
| Rilpl | DRSC18494 | 3.58e6 |
| Pi3K68D | DRSC11253 | 3.49e6 |
| Pepck2 | DRSC06013 | 3.56e6 |
| gem | DRSC06093 | 3.83e6 |
| gem | DRSC06847 | 3.49e6 |
| BomS4 | DRSC22509 | 3.53e6 |
| CG4991 | DRSC19928 | 3.79e6 |
| Snx6 | DRSC03081 | 3.65e6 |
| CG6034 | DRSC10572 | 3.45e6 |
| CG18302 | DRSC02663 | 3.42e6 |
| dia | DRSC03519 | 3.55e6 |
